Measurements from article PMC11163988, “Cloning, expression, and purification of an α-carbonic anhydrase from Toxoplasma gondii to unveil its kinetic parameters and anion inhibition profile” (Journal of Enzyme Inhibition and Medicinal Chemistry, 2024).

Amino acid sequences for entries named in this document (tags omitted). Residues count along the entry.
UniProt S8F479, 486-829 limits assumed: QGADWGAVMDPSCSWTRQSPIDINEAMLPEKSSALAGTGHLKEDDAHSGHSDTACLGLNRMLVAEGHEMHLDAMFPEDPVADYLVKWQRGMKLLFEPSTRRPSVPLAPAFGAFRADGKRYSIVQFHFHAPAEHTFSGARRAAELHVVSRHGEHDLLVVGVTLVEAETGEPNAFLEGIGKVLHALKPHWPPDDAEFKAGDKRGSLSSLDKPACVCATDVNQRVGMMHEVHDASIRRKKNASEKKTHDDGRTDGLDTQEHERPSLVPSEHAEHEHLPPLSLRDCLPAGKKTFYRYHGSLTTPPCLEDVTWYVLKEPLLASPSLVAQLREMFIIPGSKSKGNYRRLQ

Biological target: Tg_CA (Toxoplasma gondii α-CA) (Toxoplasma gondii, UniProt S8F479)
Test: biochemical

## CC(=O)Nc1nnc(S(N)(=O)=O)s1 [acetazolamide, 5-acetamido-1,3,4-thiadiazole-2-sulphonamide]
  Ki: 0.0457 µM
